PubChem BioAssay AID686943, Drosophila RNAi Screening Center – 2013
The deposit covers about 23,000 reagents; below is an unselected part of those with a known target gene and a result. 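Extra replicates exist only for a retested subset of genes; insulin dose and duration not given; both raised and lowered dpERK matter.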 Reagents against one gene are numbered here. Names joined by + are all predicted targets of the reagent. Further read-outs or replicates are left out here. Not given: the amount of reagent, the time to read-out.

- Assay: 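Search across the genome for regulators of signalling from receptor tyrosine kinase to ERK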 (primary screen)
- Cells: Drosophila S2R+ haemocyte-like cells expressing YFP-tagged ERK (Rolled)
- Reagents: long dsRNA against Drosophila genes
- Conditions: insulin stimulation versus unstimulated cells; dose and duration not given
- Measurement: 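Antibody staining for doubly phosphorylated ERK divided by ERK-YFP signal, as plate z-scores, in insulin-treated and untreated cells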
- Reading the numbers: replicate 1, z-score of dpERK with insulin and replicate 2, z-score of dpERK with insulin: higher = more active ERK per ERK-YFP after insulin

{"gene knocked down": "e(r) (enhancer of rudimentary)", "reagent": 1, "replicate 1, z-score of dpERK with insulin": 1.23, "replicate 2, z-score of dpERK with insulin": 0.4}
{"gene knocked down": "CG5886", "reagent": 1, "replicate 1, z-score of dpERK with insulin": 0.41, "replicate 2, z-score of dpERK with insulin": -0.71}
{"gene knocked down": "CG13097", "reagent": 1, "replicate 1, z-score of dpERK with insulin": -0.42, "replicate 2, z-score of dpERK with insulin": 0.4}
{"gene knocked down": "lncRNA:CR32660 (long non-coding RNA:CR32660)", "reagent": 1, "replicate 1, z-score of dpERK with insulin": 0.67, "replicate 2, z-score of dpERK with insulin": 0.43}
{"gene knocked down": "ebd2 (earthbound 2)", "reagent": 1, "replicate 1, z-score of dpERK with insulin": -0.16, "replicate 2, z-score of dpERK with insulin": -0.36}
{"gene knocked down": "Veneno", "reagent": 1, "replicate 1, z-score of dpERK with insulin": -0.21, "replicate 2, z-score of dpERK with insulin": 0.61}
{"gene knocked down": "lncRNA:CR32730 (long non-coding RNA:CR32730)", "reagent": 1, "replicate 1, z-score of dpERK with insulin": 0.68, "replicate 2, z-score of dpERK with insulin": 0.43}
{"gene knocked down": "Drsl3 (Drosomycin-like 3)", "reagent": 1, "replicate 1, z-score of dpERK with insulin": 1.61, "replicate 2, z-score of dpERK with insulin": 1.36}
{"gene knocked down": "CG10116", "reagent": 1, "replicate 1, z-score of dpERK with insulin": 0.31, "replicate 2, z-score of dpERK with insulin": 0.43}
{"gene knocked down": "CG1889 + CG43386", "reagent": 1, "replicate 1, z-score of dpERK with insulin": -0.2, "replicate 2, z-score of dpERK with insulin": 0.44}
{"gene knocked down": "Parg (Poly(ADP-ribose) glycohydrolase)", "reagent": 1, "replicate 1, z-score of dpERK with insulin": 0.07, "replicate 2, z-score of dpERK with insulin": 0.26}
{"gene knocked down": "Obp18a (Odorant-binding protein 18a)", "reagent": 1, "replicate 1, z-score of dpERK with insulin": -0.36, "replicate 2, z-score of dpERK with insulin": -0.66}
{"gene knocked down": "fmt (fiery mountain)", "reagent": 1, "replicate 1, z-score of dpERK with insulin": -0.31, "replicate 2, z-score of dpERK with insulin": -0.01}
{"gene knocked down": "CG13862", "reagent": 1, "replicate 1, z-score of dpERK with insulin": 0.86, "replicate 2, z-score of dpERK with insulin": -0.14}
{"gene knocked down": "CG7126", "reagent": 1, "replicate 1, z-score of dpERK with insulin": 0.32, "replicate 2, z-score of dpERK with insulin": 0.41}
{"gene knocked down": "CG13365", "reagent": 1, "replicate 1, z-score of dpERK with insulin": 0.26, "replicate 2, z-score of dpERK with insulin": 0.45}
{"gene knocked down": "GstE8 (Glutathione S transferase E8)", "reagent": 1, "replicate 1, z-score of dpERK with insulin": 0.21, "replicate 2, z-score of dpERK with insulin": 0.15}
{"gene knocked down": "eEF1alpha2 (eukaryotic translation elongation factor 1 alpha 2)", "reagent": 1, "replicate 1, z-score of dpERK with insulin": -0.26, "replicate 2, z-score of dpERK with insulin": 0.24}
{"gene knocked down": "eEF1alpha2 (eukaryotic translation elongation factor 1 alpha 2)", "reagent": 2, "replicate 1, z-score of dpERK with insulin": 1.18, "replicate 2, z-score of dpERK with insulin": 1.15}
{"gene knocked down": "CG34205", "reagent": 1, "replicate 1, z-score of dpERK with insulin": 0.57, "replicate 2, z-score of dpERK with insulin": 0.16}
{"gene knocked down": "CG34205", "reagent": 2, "replicate 1, z-score of dpERK with insulin": 0.17, "replicate 2, z-score of dpERK with insulin": 0.8}
{"gene knocked down": "CG18609", "reagent": 1, "replicate 1, z-score of dpERK with insulin": 0.27, "replicate 2, z-score of dpERK with insulin": 0.11}
{"gene knocked down": "BBS8 (Bardet-Biedl syndrome 8)", "reagent": 1, "replicate 1, z-score of dpERK with insulin": 0.72, "replicate 2, z-score of dpERK with insulin": -0.1}
{"gene knocked down": "CG6689", "reagent": 1, "replicate 1, z-score of dpERK with insulin": -0.73, "replicate 2, z-score of dpERK with insulin": 0.13}
{"gene knocked down": "CG6654", "reagent": 1, "replicate 1, z-score of dpERK with insulin": -1.56, "replicate 2, z-score of dpERK with insulin": -0.27}
{"gene knocked down": "CG7377", "reagent": 1, "replicate 1, z-score of dpERK with insulin": -0.95, "replicate 2, z-score of dpERK with insulin": 0.6}
{"gene knocked down": "Dhrs4 (Dehydrogenase/reductase 4)", "reagent": 1, "replicate 1, z-score of dpERK with insulin": 0.41, "replicate 2, z-score of dpERK with insulin": 0.75}
{"gene knocked down": "CtsL1 (Cathepsin L1)", "reagent": 1, "replicate 1, z-score of dpERK with insulin": -0.09, "replicate 2, z-score of dpERK with insulin": -0.41}
{"gene knocked down": "CtsL1 (Cathepsin L1)", "reagent": 2, "replicate 1, z-score of dpERK with insulin": -0.16, "replicate 2, z-score of dpERK with insulin": -1.6}
{"gene knocked down": "CG11811", "reagent": 1, "replicate 1, z-score of dpERK with insulin": 0.13, "replicate 2, z-score of dpERK with insulin": 0.2}
{"gene knocked down": "CG12375", "reagent": 1, "replicate 1, z-score of dpERK with insulin": 0.34, "replicate 2, z-score of dpERK with insulin": 0.51}

Sorted by “replicate 1, z-score of dpERK with insulin” (ascending): some entries from above.
{"gene knocked down": "eEF1alpha2 (eukaryotic translation elongation factor 1 alpha 2)", "reagent": 1, "replicate 1, z-score of dpERK with insulin": -0.26, "replicate 2, z-score of dpERK with insulin": 0.24}
{"gene knocked down": "GstE8 (Glutathione S transferase E8)", "reagent": 1, "replicate 1, z-score of dpERK with insulin": 0.21, "replicate 2, z-score of dpERK with insulin": 0.15}
{"gene knocked down": "CG13365", "reagent": 1, "replicate 1, z-score of dpERK with insulin": 0.26, "replicate 2, z-score of dpERK with insulin": 0.45}
